Record: PubChem BioAssay AID720505 (Drosophila RNAi Screening Center, 2013)
Aim: 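Genes needed for store-operated calcium entry in fly cells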 (primary screen). Cell system: Drosophila S2R+ cells. Reagents: long dsRNA against Drosophila genes. Treatment: thapsigargin (2 µM) in calcium-free buffer to empty internal stores, then 2 mM calcium added back. Detection: 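Stores emptied by 2 µM thapsigargin without calcium, then 2 mM calcium re-added; fluo-4 fluorescence followed by FLIPR in 384-well plates, per-well averaged endpoint, raw; two screen passes, some wells retested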. Direction: calcium signal and retest calcium signal: higher = more calcium entry after store depletion. Rule for the call: 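About 1500 genes called as lowering calcium entry, by varying amounts, judged against per-plate control wells with STIM1 as positive and Rho1 as negative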. Calls: active = called as lowering calcium entry; inactive = not called.
The screen tested about 20,000 reagents; shown is an unselected part of those that have a named target and a result. In the full data, about 2,100 (10%) are marked active. 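Raw plate signals without normalisation; calls rest on control-based scores that were not deposited; replicate 2 separates called from uncalled poorly.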 The record does not give: the amount of reagent, the time to read-out.

CG14237 (GeneID 43194) [DRSC14731] | calcium signal, replicate 1: 103; calcium signal, replicate 2: 104; activity call: inactive
CG14237 (GeneID 43194) [DRSC23239] | calcium signal, replicate 1: 103; calcium signal, replicate 2: 143; activity call: inactive
CG18789 (GeneID 317813) [DRSC02696] | calcium signal, replicate 1: 82.3; calcium signal, replicate 2: 125; activity call: inactive
CG12682 (GeneID 31415) [DRSC17873] | calcium signal, replicate 1: 278; calcium signal, replicate 2: 98.6; activity call: inactive
Nbr (GeneID 35385) [DRSC03166] | calcium signal, replicate 1: 113; calcium signal, replicate 2: 90; activity call: inactive
CG15572 (GeneID 31371) [DRSC18060] | calcium signal, replicate 1: 149; calcium signal, replicate 2: 130; activity call: inactive
tum (GeneID 36538) [DRSC07575] | calcium signal, replicate 1: 68.6; calcium signal, replicate 2: 162; activity call: inactive
Klp3A (GeneID 31240) [DRSC18676] | calcium signal, replicate 1: 103; calcium signal, replicate 2: 139; activity call: inactive
Klp3A (GeneID 31240) [DRSC21625] | calcium signal, replicate 1: 127; calcium signal, replicate 2: 110; activity call: inactive
CG8646 (GeneID 36394) [DRSC07230] | calcium signal, replicate 1: 98.9; calcium signal, replicate 2: 155; activity call: inactive
cutlet (GeneID 44637) [DRSC00284] | calcium signal, replicate 1: 134; calcium signal, replicate 2: 123; retest calcium signal, replicate 1: 101; retest calcium signal, replicate 2: 93.9; activity call: inactive
CG11854 (GeneID 43037) [DRSC14409] | calcium signal, replicate 1: 171; calcium signal, replicate 2: 155; activity call: inactive
CG15628 (GeneID 33681) [DRSC00256] | calcium signal, replicate 1: 84.4; calcium signal, replicate 2: 162; activity call: inactive
CG15628 (GeneID 33681) [DRSC00463] | calcium signal, replicate 1: 189; calcium signal, replicate 2: 134; activity call: inactive
CG15213 (GeneID 50316) [DRSC10213] | calcium signal, replicate 1: 86.2; calcium signal, replicate 2: 86.4; activity call: inactive
Ebp (GeneID 38009) [DRSC04048] | calcium signal, replicate 1: 96.8; calcium signal, replicate 2: 103; activity call: inactive
Ggt-1 (GeneID 32839) [DRSC19993] | calcium signal, replicate 1: 136; calcium signal, replicate 2: 183; activity call: inactive
CG11892 (GeneID 43053) [DRSC14428] | calcium signal, replicate 1: 88; calcium signal, replicate 2: 86; activity call: inactive

A portion of the results above:
CG14237 (GeneID 43194) [DRSC23239] | calcium signal, replicate 1: 103; calcium signal, replicate 2: 143; activity call: inactive
CG18789 (GeneID 317813) [DRSC02696] | calcium signal, replicate 1: 82.3; calcium signal, replicate 2: 125; activity call: inactive
CG12682 (GeneID 31415) [DRSC17873] | calcium signal, replicate 1: 278; calcium signal, replicate 2: 98.6; activity call: inactive

The listing continues.
synr (GeneID 33702) [DRSC02369] | calcium signal, replicate 1: 177; calcium signal, replicate 2: 107; activity call: inactive
shep (GeneID 38605) [DRSC09765] | calcium signal, replicate 1: 98.4; calcium signal, replicate 2: 68.1; activity call: inactive
shep (GeneID 38605) [DRSC09771] | calcium signal, replicate 1: 101; calcium signal, replicate 2: 78; activity call: inactive
CG1299 (GeneID 38496) [DRSC08300] | calcium signal, replicate 1: 97.1; calcium signal, replicate 2: 103; activity call: inactive
y (GeneID 30980) [DRSC18853] | calcium signal, replicate 1: 91.3; calcium signal, replicate 2: 119; activity call: inactive
CG5687 (GeneID 38255) [DRSC08568] | calcium signal, replicate 1: 115; calcium signal, replicate 2: 99.9; activity call: inactive
CG12589 (GeneID 50157) [DRSC12215] | calcium signal, replicate 1: 111; calcium signal, replicate 2: 99.2; activity call: inactive
CG13377 (GeneID 30972) [DRSC18622] | calcium signal, replicate 1: 110; calcium signal, replicate 2: 131; activity call: inactive
f (GeneID 32718) [DRSC19174] | calcium signal, replicate 1: 79.4; calcium signal, replicate 2: 174; activity call: inactive
f (GeneID 32718) [DRSC19516] | calcium signal, replicate 1: 86.8; calcium signal, replicate 2: 112; activity call: inactive
f (GeneID 32718) [DRSC20331] | calcium signal, replicate 1: 83.8; calcium signal, replicate 2: 128; activity call: inactive
